Test results published in the supplement of paper PMC10727501.
This is one part of the list. This data set is noisy: repeats of one test often differ as much as different tests do.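 Researchers measured free-swimming zebrafish larvae's O-bend response probability to dark flashes (naive: first five; training: remaining flashes of four 60-flash blocks; test: later 60-flash block) and OMR turning toward alternating leftward/rightward LED motion. Six treated larvae were compared to sixty 0.1% DMSO controls, with |SSMD|≥2 marking a hit.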

The compounds below were run on Danio rerio larvae (5 dpf, TLF) (assay: Prob-Train (SSMD vs DMSO vehicle); higher = higher than vehicle (e.g. higher dark-flash O-bend response probability, or better optomotor performance)). Conditions: 10 µM; pre-incubation: 30-90 min.

| SMILES | Prob-Train |
| --- | --- |
| O=c1c(O)c(-c2cc(O)c(O)c(O)c2)oc2cc(O)cc(O)c12 [Myricetin] | 0.611 |
| COc1ccc(C2CNC(=O)C2)cc1OC1CCCC1 (stereo not drawn) [Rolipram] | -0.397 |
| CNS(=O)(=O)CCc1ccc2[nH]cc(C3CCN(C)CC3)c2c1.Cl [Naratriptan] | 0.11 |
| CCN1CCN(Cc2ccc(Nc3ncc(F)c(-c4cc(F)c5nc(C)n(C(C)C)c5c4)n3)nc2)CC1.CS(=O)(=O)O | -0.205 |
| Cc1c(-c2ccccc2)oc2c(C(=O)OCCN3CCCCC3)cccc2c1=O.Cl [Flavoxate HCl] | -0.272 |
| Cc1ccccc1CN1C2=NCCN2C(=O)C2=C1CCN(Cc1ccccc1)C2 | -0.186 |
| CN[C@H](CC(=O)O)C(=O)O [NMDA (N-Methyl-D-aspartic acid)] | -0.169 |
| C[C@H]1C[C@H]2[C@@H]3CCC4=CC(=O)C=C[C@]4(C)[C@@H]3C(=O)C[C@]2(C)[C@]1(O)C(=O)CO [Meprednisone] | 0.279 |
